The results in this text go back to the supplement of paper PMC12819154, “High-throughput peptide-centric local stability assay extends protein–ligand identification to membrane proteins, tissues and bacteria” (Nature Structural & Molecular Biology, 2025).

Sequences of proteins named here, by UniProt entry; tags and fusion partners are left off. A change or cut given only in a name is not applied to a line headed by its entry.
UniProt Q80W21: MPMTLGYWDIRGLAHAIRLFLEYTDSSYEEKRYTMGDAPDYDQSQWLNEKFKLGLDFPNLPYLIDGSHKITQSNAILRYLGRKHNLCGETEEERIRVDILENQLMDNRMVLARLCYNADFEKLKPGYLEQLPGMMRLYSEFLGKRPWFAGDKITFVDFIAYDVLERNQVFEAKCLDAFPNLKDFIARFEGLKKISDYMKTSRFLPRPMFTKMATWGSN
UniProt Q8BGP6: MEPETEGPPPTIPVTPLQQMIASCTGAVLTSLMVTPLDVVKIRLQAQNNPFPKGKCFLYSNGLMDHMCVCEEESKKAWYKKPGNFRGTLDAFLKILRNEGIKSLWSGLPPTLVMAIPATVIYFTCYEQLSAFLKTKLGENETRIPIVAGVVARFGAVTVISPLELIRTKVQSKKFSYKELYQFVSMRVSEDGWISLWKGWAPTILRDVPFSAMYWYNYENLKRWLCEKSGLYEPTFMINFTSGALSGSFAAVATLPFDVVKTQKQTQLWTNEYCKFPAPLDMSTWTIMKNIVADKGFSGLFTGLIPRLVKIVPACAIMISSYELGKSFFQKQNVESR
UniProt Q7TMB8: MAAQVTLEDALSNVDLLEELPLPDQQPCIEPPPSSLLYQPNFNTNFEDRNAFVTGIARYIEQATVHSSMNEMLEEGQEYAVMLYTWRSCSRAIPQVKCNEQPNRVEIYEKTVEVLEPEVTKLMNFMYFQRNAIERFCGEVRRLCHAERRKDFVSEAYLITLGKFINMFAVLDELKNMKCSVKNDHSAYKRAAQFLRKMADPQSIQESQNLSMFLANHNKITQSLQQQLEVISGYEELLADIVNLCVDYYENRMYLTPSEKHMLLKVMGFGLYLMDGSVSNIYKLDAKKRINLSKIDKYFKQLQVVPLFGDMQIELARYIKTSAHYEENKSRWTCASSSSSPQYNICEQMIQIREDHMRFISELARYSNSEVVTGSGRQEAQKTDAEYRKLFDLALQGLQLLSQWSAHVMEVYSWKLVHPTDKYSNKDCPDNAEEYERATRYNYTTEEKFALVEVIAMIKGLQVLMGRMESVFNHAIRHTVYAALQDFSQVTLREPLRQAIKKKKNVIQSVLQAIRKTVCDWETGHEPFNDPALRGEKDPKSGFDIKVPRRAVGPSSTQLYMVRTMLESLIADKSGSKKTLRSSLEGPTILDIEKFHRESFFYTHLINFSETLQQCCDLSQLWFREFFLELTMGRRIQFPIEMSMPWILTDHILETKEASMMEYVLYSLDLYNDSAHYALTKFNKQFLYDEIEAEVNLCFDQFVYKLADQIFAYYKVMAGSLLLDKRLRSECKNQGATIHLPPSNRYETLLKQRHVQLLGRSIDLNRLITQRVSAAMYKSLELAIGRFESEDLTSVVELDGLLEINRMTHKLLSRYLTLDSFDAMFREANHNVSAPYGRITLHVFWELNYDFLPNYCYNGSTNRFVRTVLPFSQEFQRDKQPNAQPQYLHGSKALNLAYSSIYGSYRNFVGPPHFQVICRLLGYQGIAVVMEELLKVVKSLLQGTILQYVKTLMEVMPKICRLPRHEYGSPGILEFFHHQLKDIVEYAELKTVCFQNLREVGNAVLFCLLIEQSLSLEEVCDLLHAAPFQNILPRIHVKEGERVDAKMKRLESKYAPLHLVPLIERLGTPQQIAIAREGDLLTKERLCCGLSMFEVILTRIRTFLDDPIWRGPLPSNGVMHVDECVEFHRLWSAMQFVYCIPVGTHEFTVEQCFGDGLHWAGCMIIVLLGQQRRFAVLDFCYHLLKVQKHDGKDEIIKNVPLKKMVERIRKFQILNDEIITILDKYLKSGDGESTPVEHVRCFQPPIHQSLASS
UniProt Q80Y73: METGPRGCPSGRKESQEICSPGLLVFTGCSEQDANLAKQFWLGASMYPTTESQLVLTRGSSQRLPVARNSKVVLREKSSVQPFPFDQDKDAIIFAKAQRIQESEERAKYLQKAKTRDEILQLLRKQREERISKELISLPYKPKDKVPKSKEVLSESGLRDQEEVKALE
UniProt Q78JW9: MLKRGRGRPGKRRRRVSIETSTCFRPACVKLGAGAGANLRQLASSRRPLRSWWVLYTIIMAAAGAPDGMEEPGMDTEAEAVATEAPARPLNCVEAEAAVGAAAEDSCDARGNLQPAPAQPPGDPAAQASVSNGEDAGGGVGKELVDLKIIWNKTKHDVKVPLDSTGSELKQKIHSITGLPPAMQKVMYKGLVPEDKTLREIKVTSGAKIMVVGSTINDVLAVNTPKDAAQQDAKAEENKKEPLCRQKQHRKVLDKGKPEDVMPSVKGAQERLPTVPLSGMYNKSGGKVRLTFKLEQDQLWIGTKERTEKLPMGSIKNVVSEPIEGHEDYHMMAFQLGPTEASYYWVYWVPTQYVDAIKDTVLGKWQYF
UniProt Q75N73: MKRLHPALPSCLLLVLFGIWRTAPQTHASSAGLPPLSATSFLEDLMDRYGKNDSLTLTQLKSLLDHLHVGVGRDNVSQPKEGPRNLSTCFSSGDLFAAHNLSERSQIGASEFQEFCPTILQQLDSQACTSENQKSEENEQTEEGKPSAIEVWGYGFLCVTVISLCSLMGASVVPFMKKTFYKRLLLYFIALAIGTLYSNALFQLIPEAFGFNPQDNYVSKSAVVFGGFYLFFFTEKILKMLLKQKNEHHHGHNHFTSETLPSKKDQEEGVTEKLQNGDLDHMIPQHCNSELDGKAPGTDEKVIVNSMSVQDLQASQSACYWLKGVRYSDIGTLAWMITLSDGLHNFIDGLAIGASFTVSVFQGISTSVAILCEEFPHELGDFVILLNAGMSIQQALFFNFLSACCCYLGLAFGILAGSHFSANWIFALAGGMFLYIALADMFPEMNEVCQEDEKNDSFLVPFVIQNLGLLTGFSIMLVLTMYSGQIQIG
UniProt Q80XL6: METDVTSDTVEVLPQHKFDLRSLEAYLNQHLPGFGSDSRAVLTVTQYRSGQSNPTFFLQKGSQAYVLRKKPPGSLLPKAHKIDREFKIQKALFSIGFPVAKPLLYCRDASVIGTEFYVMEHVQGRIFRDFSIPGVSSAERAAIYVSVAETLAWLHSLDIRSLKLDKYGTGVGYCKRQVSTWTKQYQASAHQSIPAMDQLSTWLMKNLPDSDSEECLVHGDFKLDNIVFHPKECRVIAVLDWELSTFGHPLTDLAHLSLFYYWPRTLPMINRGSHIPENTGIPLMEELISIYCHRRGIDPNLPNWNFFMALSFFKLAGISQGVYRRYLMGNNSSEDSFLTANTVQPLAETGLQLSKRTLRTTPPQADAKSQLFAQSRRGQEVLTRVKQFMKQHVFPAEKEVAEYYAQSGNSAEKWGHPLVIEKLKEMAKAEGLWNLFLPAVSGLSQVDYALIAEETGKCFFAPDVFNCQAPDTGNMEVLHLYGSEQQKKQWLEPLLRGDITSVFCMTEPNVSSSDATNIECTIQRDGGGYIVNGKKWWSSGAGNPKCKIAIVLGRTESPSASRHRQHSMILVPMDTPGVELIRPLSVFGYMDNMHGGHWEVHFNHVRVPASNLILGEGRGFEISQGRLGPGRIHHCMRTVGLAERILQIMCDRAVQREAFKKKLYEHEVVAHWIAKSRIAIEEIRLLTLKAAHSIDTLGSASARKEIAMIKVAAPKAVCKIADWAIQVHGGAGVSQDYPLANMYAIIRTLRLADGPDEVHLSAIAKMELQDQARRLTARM
UniProt Q6P2K6: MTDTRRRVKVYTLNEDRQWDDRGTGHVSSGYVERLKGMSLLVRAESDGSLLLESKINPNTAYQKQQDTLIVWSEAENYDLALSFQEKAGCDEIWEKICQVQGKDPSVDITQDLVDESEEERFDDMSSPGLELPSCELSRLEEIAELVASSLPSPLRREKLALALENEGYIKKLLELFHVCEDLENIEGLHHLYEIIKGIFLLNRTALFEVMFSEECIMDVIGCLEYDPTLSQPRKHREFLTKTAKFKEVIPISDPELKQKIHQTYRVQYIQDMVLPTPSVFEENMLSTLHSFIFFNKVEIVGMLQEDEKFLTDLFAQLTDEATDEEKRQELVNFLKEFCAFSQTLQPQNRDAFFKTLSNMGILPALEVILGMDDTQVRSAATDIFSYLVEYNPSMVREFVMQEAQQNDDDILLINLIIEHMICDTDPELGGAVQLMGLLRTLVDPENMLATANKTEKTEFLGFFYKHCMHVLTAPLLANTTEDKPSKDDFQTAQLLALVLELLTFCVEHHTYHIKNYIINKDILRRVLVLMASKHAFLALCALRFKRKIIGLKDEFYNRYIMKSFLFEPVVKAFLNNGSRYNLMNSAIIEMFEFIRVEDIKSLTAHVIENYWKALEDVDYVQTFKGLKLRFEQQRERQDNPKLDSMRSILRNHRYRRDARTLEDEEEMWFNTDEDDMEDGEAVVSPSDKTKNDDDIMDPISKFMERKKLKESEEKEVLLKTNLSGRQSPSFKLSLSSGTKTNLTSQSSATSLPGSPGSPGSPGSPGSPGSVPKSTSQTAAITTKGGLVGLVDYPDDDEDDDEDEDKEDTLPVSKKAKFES
UniProt Q6PE15: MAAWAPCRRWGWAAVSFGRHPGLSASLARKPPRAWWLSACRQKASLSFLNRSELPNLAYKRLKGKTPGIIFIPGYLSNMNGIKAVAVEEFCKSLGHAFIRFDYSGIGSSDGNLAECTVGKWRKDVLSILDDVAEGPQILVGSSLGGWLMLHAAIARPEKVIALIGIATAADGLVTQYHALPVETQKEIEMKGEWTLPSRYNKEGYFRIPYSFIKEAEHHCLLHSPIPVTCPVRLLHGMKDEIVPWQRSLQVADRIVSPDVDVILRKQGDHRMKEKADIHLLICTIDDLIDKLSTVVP
UniProt Q711T7: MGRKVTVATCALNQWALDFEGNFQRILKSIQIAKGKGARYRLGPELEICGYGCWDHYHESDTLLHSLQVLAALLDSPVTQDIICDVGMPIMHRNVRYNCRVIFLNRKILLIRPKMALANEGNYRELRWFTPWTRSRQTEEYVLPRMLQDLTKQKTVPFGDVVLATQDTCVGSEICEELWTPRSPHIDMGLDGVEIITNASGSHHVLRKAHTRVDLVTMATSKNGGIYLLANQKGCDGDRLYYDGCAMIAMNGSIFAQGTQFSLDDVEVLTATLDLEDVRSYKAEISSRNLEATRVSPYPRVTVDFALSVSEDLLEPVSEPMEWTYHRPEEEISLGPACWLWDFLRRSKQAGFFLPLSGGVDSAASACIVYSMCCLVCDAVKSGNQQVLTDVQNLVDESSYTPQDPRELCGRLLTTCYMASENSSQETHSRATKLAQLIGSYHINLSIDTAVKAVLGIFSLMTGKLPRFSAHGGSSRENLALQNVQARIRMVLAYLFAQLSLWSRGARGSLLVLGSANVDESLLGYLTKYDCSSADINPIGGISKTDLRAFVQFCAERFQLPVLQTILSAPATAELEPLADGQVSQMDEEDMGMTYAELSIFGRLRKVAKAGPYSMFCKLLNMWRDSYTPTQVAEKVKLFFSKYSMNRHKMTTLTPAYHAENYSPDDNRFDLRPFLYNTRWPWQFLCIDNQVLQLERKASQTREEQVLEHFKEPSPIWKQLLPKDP
UniProt Q8BFU3: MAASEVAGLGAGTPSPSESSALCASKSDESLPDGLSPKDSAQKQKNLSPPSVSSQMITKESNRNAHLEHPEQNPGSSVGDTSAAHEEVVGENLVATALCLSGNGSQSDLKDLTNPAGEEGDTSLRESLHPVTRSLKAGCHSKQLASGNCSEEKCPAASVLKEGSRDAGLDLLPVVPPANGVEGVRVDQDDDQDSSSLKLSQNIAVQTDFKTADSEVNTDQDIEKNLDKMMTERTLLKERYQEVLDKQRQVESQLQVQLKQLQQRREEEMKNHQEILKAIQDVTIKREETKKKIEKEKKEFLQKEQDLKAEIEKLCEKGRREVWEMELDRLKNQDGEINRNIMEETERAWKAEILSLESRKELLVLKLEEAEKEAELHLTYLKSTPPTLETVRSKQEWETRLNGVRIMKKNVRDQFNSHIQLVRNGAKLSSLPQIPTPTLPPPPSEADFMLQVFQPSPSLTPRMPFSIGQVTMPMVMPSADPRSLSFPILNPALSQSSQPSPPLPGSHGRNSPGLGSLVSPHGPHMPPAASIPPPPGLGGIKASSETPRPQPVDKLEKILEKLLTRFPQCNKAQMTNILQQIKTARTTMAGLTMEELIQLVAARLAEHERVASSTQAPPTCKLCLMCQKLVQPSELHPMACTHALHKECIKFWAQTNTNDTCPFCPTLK
UniProt Q76LS9: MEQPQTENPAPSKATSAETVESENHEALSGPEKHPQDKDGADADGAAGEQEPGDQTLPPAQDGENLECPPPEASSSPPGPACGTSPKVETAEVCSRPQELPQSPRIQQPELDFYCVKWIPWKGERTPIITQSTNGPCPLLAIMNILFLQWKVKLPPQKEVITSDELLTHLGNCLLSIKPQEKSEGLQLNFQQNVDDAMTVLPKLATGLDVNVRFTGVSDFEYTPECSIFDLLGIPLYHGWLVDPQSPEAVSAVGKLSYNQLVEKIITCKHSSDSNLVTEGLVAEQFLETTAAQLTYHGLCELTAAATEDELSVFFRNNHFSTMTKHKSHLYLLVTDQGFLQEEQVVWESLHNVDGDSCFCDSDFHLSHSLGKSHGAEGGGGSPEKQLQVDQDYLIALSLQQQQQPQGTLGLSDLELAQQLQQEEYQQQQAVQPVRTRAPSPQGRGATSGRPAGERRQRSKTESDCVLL

The list shows a part of the results. Most entries show no effect beyond the scatter of the controls.

Compound in this assay: CN[C@@H]1C[C@H]2O[C@@](C)([C@@H]1OC)n1c3ccccc3c3c4c(c5c6ccccc6n2c5c31)C(=O)NC4 [staurosporine]
The assay can be described thus: log2 fold change of pooled soluble protein (PISA), ligand vs vehicle (log2 ratio); higher = more thermally stabilized. Particulars: ligand concentration: 20 uM; assay format: PISA pool 52.9/55.5/58.6 C.
With UniProt Q80W21, the “log2 fold change of pooled soluble protein” value (from here on “log2 fold change”) is -0.138. The result for UniProt Q8BFY9 reads -0.0422. For the target UniProt Q810U5, the “log2 fold change” value was found to be 0.000563. UniProt Q8BGB5: the “log2 fold change” value was -0.103. On to UniProt Q8BGP6, for which the “log2 fold change” value was -0.0776.

Take UniProt Q6VN19: the “log2 fold change” value was -0.0203. As to UniProt Q7TMY8, the “log2 fold change” value was -0.0202. UniProt Q6NXN1: the “log2 fold change” value is -0.0736. As to UniProt Q7TMB8, the “log2 fold change” value is -0.292. The result for UniProt Q6ZQ03 reads 0.0643; that for UniProt Q80Y73, 0.0972; that for UniProt Q78JW9, 0.0858. Regarding UniProt Q7TPR4, the “log2 fold change” value is -0.00597. UniProt Q80Y98: the “log2 fold change” value is -0.0498. Turning to UniProt Q80U72, the “log2 fold change” value is -0.0216. As to UniProt Q75N73, the “log2 fold change” value is -0.0684. For the target UniProt Q6P8U6, the “log2 fold change” value worked out at 0.0281.

For the target UniProt Q80XL6, the “log2 fold change” value came out at 0.0144.

For the target UniProt Q80XI3, the “log2 fold change” value was -0.0865. With UniProt Q7TSG2, the “log2 fold change” value was 0.117.

On to UniProt Q6P5E4, for which the “log2 fold change” value stood at 0.0311.

For UniProt Q6NZM9, the “log2 fold change” value is -0.14. Regarding UniProt Q6P2K6, the “log2 fold change” value came out at 0.0351. In the case of UniProt Q6PGC1 it was -0.022. Consider UniProt Q6Q477, for which the “log2 fold change” value was -0.136. Take UniProt Q80X71: the “log2 fold change” value came out at 0.0534. For UniProt Q80ZJ1, the “log2 fold change” value came to 0.024. In the case of UniProt Q80UG5 it was -0.0833; in that of UniProt Q80VJ2, -0.0419. In the case of UniProt Q6PE15, the “log2 fold change” value was -0.105.

In the case of UniProt Q711T7, the “log2 fold change” value is 0.0207. With UniProt Q8BFU3, the “log2 fold change” value was -0.0152. On to UniProt Q6ZPE2, for which the “log2 fold change” value is -0.00115.

Turning to UniProt Q76LS9, the “log2 fold change” value stood at 0.0412.

With UniProt Q6TCG2, the “log2 fold change” value was -0.0569. Regarding UniProt Q78IQ7, the “log2 fold change” value stood at 0.144.
